{"sequences": {"note": "Amino acid sequences for entries named in this document (tags omitted). A change or cut given only in a name is not applied to a line headed by its entry. Chains listed by the source or under a name are the forms on record and can include a tag or linker.", "UniProt O88472": "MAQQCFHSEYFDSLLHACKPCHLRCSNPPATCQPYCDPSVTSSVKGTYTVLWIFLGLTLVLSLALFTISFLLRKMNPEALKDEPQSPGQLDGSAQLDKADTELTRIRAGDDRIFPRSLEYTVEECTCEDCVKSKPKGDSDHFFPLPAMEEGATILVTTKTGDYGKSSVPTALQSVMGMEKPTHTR", "Cyno TACI-His (Sino Biological, 90976-C08H) (G7PTR7, form named)": "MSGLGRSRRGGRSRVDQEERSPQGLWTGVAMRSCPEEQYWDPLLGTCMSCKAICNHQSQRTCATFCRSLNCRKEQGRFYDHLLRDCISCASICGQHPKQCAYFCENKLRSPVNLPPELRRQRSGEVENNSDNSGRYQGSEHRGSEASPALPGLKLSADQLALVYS"}, "source": "patent US20230374147A1", "key": {"[1]": {"target": "His-tagged mouse BCMA (Acro Biosystems, BCA-M52H3) (mouse) (UniProt O88472)", "test": "BLI, His-tagged mouse BCMA on HIS1K tip"}, "[2]": {"target": "Cyno TACI-His (Sino Biological, 90976-C08H) (cynomolgus macaque) (UniProt G7PTR7)", "test": "BLI (Gator), antibody loaded on HFC biosensor, His-tagged antigen as analyte"}, "[3]": {"target": "Cyno TACI-His (Sino Biological, 90976-C08H) (cynomolgus macaque) (UniProt G7PTR7)", "test": "ELISA, coated His-tagged antigen"}}, "note": "These are yes or no findings as the source states them, for the method shown. Some results given as binding are weak or reduced against the parent protein; the word gives no strength.", "data": [{"binder": "J6M0 (antibody, V domains shown) VH: QVQLVQSGAEVKKPGSSVKVSCKASGGTFSNYWMHWVRQAPGQGLEWMGATYRGHSDTYYNQKFKGRVTITADKSTSTAYMELSSLRSEDTAVYYCARGAIYDGYDVLDNWGQGTLVTVSS VL: DIQMTQSPSSLSASVGDRVTITCSASQDISNYLNWYQQKPGKAPKLLIYYTSNLHSGVPSRFSGSGSGTDFTLTISSLQPEDFATYYCQQYRKLPWTFGQGTKLEIK", "values": [{"measurement": "binding", "setting": "[1]", "result": "no binding (tested: 1000 nM)"}]}, {"binder": "1C8-403 hIgG1 (antibody, V domains shown) VH: QVQLVQSGAEVKKPGASVKVSCKASGYTFTNYVMHWVKQKPGQGLEWMGYILPYNDGTKYAQKFQGKVTMTSDKSTSTVYMELSSLTSEDTAVYYCARYDWEGSFDYWGQGTLVTVSS VL: DIQMTQSPSSLSASVGDRVTITCRASSDISNYLNWYQQKPGKAPKLLMCYTSRLHSGVPSRFSGSGSGTDFTLTISSLEQEDFATYYCQQGNTFPPTFGGGTKVEIKR", "values": [{"measurement": "binding", "setting": "[2]", "result": "binds"}, {"measurement": "binding", "setting": "[3]", "result": "binds"}]}, {"binder": "1C8-507 hIgG1 (antibody, V domains shown) VH: QVQLVQSGAEVKKPGASVKVSCKASGYTFRNYVMHWVKQKPGQGLEWMGWILPYNDGTKYAQKFQGKVTMTSDKSTSTVYMELSSLTSEDTAVYYCARYDYEGSFDYWGQGTLVTVSS VL: DIQMTQSPSSLSASVGDRVTITCRASQDISNYLNWYQQKPGKAPKLLMRYTSLLHSGVPSRFSGSGSGTDFTLTISSLEQEDFATYYCQQGNTFPPTFGGGTKVEIKR", "values": [{"measurement": "binding", "setting": "[2]", "result": "binds"}, {"measurement": "binding", "setting": "[3]", "result": "binds"}]}, {"binder": "1C8-610 hIgG1 (antibody, V domains shown) VH: QVQLVQSGAEVKKPGASVKVSCKASGYTFTNYVMFWVKQKPGQGLEWMGYITPYNDGTKYAQKFQGKVTMTSDKSTSTVYMELSSLTSEDTAVYYCARYDYEGSFDYWGQGTLVTVSS VL: DIQMTQSPSSLSASVGDRVTITCRASQDISNYLNWYQQKPGKAPKLLMRYTSRFHSGVPSRFSGSGSGTDFTLTISSLEQEDFATYYCQQGNTFPPTSGGGTKVEIKR", "values": [{"measurement": "binding", "setting": "[2]", "result": "binds"}, {"measurement": "binding", "setting": "[3]", "result": "binds"}]}, {"binder": "1C8-6A3 hIgG1 (antibody, V domains shown) VH: QVQLVQSGAEVKKPGASVKVSCKASGYTFTNYVMHWVKQKPGQGLEWMGYILPYNDGTKYAQKFQGKVTMTSDKSTSTVYMELSSLTSEDTAVYYCARYDYEGSFDYWGQGTLVTVSS VL: DIQMTQSPSSLSASVGDRVTITCRASQDISNYLNWYQQKPGKAPKLLMCYTSRLHSGVPSRFSGSGSGTDFTLTISSLEQEDFATYYCQQGNTFPPTFGGGTKVEIKR", "values": [{"measurement": "binding", "setting": "[2]", "result": "binds"}, {"measurement": "binding", "setting": "[3]", "result": "binds"}]}, {"binder": "1C8-25 hIgG1 (antibody, V domains shown) VH: QVQLVQSGAEVKKPGASVKVSCKASGYTFTNYVMHWVRQAPGQRLEWMGYILPYNDGTKYSQKFQGRVTITRDTSASTAYMELSSLRSEDTAVYYCARYDWEGSFDYWGQGTTVTVSS VL: DIQMTQSPSSLSASVGDRVTITCRASQDIGNYLNWYQQKPGKAVKLLMRYTSRLHSGVPSRFSGSGSGTDFTLTISSLQPEDFATYYCQQGFTFPPTFGGGTKLEIKR", "values": [{"measurement": "binding", "setting": "[2]", "result": "binds"}]}, {"binder": "1C8-27 hIgG1 (antibody, V domains shown) VH: QVQLVQSGAEVKKPGASVKVSCKASGYTFTNYVMHWVRQAPGQRLEWMGYILPYNDGTKYSQKFQGRVTITRDTSASTAYMELSSLRSEDTAVYYCARYDWEGSFDYWGQGTTVTVSS VL: DIQMTQSPSSLSASVGDRVTITCAASQDISNYLNWYQQKPGKAVKLLMRYTSRLHSGVPSRFSGSGSGTDFTLTISSLQPEDFATYYCQQGNRFPPTFGGGTKLEIKR", "values": [{"measurement": "binding", "setting": "[2]", "result": "binds"}]}]}
